Data source: PubChem BioAssay AID1224830 (NIAID, 2016)
Here is a random part of about 18,000 deposited reagents. About 2,900 of all reagents (16%) were called active. 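Calls are made per well; low scores hint the gene aids the LPS response, high scores that it dampens it.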 Repeated entries: four replicate wells of each siRNA pool.

Screen: 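Genes whose knock-down alters the TNF-alpha reporter response to LPS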 (primary screen)
Cell system: human THP-1 monocytic leukaemia cells, TNF dual-luciferase reporter clone, PMA-differentiated to macrophage-like cells
Knock-down reagent: siRNA pool against human genes, 50 nM
Duration: LPS for 4 h, given about 3 days after siRNA transfection
Conditions: bacterial LPS (TLR4 ligand), 10 ng/ml
Measurement: 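Ratio of firefly to renilla light, scaled to the plate median and expressed as a robust z-score per replicate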
Reading the numbers: TNF reporter robust z-score: higher = stronger TNF reporter response to LPS
Call rule: 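a well is active when its z-score exceeds 2.8 or falls below -1.5; control wells carry no call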

TNF reporter robust z-score,activity call,target
-1.5,inactive,GSTA1
-1.41,inactive,GSTA1
-0.2,inactive,GSTA1
-0.22,inactive,GSTA1
-0.66,inactive,DPP4
-0.2,inactive,DPP4
-0.16,inactive,DPP4
-0.35,inactive,DPP4
-0.22,inactive,CARNMT1
0.92,inactive,CARNMT1
0.74,inactive,CARNMT1
0.18,inactive,CARNMT1
1.82,inactive,HBG2
2,inactive,HBG2
0.73,inactive,HBG2
-1.29,inactive,HBG2
-0.68,inactive,RBM46
-0.04,inactive,RBM46
0.96,inactive,RBM46
1.95,inactive,RBM46
0.58,inactive,RUFY1
-0.71,inactive,RUFY1
2.43,inactive,RUFY1
0.42,inactive,RUFY1
-2.05,active,TNIP1
-1.29,inactive,TNIP1
-2.02,active,TNIP1
-1.24,inactive,TNIP1
-0.76,inactive,TCFL5
-0.35,inactive,TCFL5
0.52,inactive,TCFL5
0.34,inactive,TCFL5
1.13,inactive,SLC13A3
3.89,active,SLC13A3
2.56,inactive,SLC13A3
4.46,active,SLC13A3
-1.39,inactive,STS
-0.91,inactive,STS
-0.98,inactive,STS
-1.35,inactive,STS
0.01,inactive,TSKU
0.12,inactive,TSKU
-0.62,inactive,TSKU
-0.21,inactive,TSKU
-0.52,inactive,PITX2
0.1,inactive,PITX2
-0.13,inactive,PITX2
-0.99,inactive,PITX2

5 consecutive records from above, for reference:
TNF reporter robust z-score,activity call,target
2.56,inactive,SLC13A3
4.46,active,SLC13A3
-1.39,inactive,STS
-0.91,inactive,STS
-0.98,inactive,STS
